This is one part of the list.
What was measured:
Assay in all cases: log2 fold change, soluble protein after heating vs DMSO (PISA); higher = thermal stabilisation; K562 lysate, 10 uM; active = over 0.2 and 3.5 SD of the protein, either way, in both replicates (recomputed)
erlotinib = compound: C#Cc1cccc(Nc2ncnc3cc(OCCOC)c(OCCOC)cc23)c1 [erlotinib]
Outline: (§1)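 Soluble protein was defined as the supernatant remaining after 21,000xg for 90 min, following pooling of heated aliquots and adjustment to 0.5% NP-40 at 4°C. Before that, crude K562 extract at 1 mg/mL protein in PBS pH 7.4 with 1 mM MgCl2 was treated with 10 μM compound for 30 min and heated for 3 min across 48°C-58°C. Quantification used TMTpro 16plex LC-MS/MS with channel sums equalised, and values are log-two fold changes in thermal stability relative to solvent controls from duplicates.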

Chains of the proteins cited; added tags and fusions are not shown. Lines headed by an entry give the natural chain unless they say otherwise; changes in a name come on top.
UniProt Q9H5K3: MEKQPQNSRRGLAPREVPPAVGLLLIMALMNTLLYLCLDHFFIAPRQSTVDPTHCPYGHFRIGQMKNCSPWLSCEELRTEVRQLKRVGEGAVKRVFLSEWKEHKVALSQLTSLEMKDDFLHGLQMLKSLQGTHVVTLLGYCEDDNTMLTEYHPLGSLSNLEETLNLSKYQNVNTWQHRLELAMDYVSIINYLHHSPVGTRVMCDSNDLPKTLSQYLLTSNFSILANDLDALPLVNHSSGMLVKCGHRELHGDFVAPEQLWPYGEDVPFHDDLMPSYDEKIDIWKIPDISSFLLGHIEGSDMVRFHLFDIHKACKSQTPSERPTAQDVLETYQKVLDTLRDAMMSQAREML
UniProt Q15126: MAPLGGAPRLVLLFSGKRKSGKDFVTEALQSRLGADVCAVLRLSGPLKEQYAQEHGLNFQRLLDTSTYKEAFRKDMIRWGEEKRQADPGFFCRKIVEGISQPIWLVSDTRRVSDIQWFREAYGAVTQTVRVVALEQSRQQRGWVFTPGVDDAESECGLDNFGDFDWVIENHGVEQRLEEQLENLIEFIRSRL
UniProt Q9BT43: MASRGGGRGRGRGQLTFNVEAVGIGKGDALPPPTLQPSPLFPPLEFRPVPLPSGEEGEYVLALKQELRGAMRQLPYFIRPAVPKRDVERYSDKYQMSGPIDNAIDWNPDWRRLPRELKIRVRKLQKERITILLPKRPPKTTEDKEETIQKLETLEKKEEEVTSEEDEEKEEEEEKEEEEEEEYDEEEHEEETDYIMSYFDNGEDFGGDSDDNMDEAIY
UniProt O00411: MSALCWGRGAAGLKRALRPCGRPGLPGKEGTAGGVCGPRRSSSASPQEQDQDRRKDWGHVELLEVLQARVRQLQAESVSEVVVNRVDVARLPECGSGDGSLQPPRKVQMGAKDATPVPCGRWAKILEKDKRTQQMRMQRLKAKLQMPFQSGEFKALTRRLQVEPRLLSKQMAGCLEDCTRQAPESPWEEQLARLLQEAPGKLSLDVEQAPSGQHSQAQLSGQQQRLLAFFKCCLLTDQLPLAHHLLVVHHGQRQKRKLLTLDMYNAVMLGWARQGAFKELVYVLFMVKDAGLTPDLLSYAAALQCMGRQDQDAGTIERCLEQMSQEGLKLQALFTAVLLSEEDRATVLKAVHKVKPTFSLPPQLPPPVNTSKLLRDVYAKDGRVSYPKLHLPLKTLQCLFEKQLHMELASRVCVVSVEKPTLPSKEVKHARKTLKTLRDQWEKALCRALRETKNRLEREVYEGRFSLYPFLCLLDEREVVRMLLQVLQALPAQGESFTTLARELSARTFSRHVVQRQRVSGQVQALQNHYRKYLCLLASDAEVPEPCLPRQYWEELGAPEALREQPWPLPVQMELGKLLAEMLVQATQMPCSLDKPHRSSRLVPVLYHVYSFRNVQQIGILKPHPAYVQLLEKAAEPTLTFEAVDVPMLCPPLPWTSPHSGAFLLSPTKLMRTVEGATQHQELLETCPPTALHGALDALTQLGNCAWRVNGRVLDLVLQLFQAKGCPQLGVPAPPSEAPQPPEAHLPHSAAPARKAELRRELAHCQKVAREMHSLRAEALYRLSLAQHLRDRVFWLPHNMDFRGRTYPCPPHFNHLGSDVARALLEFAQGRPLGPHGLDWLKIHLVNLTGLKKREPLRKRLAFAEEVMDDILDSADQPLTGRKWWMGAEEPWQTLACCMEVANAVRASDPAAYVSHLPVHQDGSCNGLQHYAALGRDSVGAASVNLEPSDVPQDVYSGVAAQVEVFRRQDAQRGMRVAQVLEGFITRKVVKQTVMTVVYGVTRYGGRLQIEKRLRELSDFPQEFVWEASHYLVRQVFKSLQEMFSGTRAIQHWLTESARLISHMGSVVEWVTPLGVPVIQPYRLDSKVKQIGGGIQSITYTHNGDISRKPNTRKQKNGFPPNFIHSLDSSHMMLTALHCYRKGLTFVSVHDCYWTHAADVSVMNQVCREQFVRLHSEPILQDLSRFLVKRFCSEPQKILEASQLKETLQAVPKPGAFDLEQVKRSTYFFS
UniProt Q9H1D9: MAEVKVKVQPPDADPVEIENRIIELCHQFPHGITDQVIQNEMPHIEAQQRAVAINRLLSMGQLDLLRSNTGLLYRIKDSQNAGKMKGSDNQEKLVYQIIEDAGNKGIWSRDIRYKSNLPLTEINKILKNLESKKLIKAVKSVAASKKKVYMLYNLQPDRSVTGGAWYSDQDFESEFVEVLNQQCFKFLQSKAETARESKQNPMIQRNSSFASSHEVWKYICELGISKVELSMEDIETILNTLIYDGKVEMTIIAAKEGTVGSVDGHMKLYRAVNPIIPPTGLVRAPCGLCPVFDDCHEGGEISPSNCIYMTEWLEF
UniProt O94903: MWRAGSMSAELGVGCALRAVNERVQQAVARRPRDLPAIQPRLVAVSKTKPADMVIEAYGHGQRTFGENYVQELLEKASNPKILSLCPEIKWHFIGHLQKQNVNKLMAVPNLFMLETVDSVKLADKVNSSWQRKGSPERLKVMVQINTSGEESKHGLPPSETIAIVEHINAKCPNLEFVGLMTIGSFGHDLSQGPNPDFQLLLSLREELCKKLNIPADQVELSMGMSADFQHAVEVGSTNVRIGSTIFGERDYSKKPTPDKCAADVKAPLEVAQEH
UniProt O75145: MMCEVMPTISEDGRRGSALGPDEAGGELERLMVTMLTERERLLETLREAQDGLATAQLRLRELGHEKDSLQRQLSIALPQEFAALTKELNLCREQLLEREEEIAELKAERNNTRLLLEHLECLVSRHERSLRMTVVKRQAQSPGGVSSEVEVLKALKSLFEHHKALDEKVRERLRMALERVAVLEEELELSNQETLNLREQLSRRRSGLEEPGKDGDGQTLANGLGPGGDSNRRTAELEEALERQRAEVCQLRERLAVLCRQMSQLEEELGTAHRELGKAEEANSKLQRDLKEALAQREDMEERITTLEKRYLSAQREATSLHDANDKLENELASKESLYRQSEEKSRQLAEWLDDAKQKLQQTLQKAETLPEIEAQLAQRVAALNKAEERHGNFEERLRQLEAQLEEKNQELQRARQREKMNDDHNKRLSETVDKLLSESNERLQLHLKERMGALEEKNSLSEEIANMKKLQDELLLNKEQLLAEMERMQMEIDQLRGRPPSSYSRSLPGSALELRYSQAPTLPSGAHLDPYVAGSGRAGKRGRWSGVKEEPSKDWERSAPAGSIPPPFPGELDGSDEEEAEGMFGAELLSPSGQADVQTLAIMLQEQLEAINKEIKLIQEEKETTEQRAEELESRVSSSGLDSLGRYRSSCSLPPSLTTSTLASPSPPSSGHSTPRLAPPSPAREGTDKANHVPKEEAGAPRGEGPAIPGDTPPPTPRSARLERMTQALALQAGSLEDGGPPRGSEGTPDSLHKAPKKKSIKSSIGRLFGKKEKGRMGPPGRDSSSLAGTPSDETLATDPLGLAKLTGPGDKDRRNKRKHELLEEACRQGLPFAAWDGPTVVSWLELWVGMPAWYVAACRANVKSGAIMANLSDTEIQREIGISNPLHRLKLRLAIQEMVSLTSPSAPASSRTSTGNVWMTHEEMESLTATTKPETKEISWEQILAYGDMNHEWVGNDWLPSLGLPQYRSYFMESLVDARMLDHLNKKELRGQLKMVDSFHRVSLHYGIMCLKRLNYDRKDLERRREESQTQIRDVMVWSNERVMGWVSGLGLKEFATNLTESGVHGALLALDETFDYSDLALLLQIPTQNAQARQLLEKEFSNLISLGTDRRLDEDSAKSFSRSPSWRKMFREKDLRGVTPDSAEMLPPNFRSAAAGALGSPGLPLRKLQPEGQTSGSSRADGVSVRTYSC
UniProt P54277: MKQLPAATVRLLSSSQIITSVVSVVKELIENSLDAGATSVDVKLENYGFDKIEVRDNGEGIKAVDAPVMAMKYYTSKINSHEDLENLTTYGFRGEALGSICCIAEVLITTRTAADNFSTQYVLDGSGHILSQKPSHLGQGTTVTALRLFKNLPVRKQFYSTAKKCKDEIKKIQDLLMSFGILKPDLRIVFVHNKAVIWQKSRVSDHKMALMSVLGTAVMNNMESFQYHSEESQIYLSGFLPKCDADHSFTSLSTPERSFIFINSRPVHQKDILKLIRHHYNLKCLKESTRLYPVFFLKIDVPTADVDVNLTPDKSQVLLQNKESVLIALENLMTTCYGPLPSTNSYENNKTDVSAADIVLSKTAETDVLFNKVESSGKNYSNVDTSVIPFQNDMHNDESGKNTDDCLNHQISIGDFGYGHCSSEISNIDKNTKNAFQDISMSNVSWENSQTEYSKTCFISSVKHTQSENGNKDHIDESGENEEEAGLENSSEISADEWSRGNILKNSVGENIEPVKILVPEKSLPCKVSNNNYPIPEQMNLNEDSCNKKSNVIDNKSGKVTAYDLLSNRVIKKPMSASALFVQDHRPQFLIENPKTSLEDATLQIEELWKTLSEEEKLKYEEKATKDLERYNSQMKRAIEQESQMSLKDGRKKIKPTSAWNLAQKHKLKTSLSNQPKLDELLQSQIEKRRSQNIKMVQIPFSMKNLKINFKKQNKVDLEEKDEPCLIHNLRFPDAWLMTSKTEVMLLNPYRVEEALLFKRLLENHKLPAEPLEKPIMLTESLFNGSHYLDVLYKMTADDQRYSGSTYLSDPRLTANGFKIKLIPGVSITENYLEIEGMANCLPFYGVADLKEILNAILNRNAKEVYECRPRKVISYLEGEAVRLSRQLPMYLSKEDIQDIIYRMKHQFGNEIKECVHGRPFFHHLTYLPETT
UniProt Q9NZ53: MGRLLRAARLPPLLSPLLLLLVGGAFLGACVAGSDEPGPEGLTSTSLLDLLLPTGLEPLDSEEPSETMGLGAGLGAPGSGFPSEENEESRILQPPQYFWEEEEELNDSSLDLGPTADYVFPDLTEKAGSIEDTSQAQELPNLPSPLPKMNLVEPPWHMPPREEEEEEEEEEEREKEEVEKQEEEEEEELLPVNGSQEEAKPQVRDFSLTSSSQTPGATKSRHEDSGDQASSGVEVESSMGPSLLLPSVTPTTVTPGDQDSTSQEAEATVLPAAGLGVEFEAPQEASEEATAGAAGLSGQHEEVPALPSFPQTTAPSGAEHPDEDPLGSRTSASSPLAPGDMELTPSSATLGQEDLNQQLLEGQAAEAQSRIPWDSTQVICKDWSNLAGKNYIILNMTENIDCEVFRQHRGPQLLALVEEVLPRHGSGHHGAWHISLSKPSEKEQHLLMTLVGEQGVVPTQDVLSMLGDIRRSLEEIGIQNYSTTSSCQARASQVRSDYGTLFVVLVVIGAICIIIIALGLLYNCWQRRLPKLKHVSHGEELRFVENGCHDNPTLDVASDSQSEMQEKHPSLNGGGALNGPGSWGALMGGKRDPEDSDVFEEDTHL
UniProt Q9H9Y6, whole entry, looked up: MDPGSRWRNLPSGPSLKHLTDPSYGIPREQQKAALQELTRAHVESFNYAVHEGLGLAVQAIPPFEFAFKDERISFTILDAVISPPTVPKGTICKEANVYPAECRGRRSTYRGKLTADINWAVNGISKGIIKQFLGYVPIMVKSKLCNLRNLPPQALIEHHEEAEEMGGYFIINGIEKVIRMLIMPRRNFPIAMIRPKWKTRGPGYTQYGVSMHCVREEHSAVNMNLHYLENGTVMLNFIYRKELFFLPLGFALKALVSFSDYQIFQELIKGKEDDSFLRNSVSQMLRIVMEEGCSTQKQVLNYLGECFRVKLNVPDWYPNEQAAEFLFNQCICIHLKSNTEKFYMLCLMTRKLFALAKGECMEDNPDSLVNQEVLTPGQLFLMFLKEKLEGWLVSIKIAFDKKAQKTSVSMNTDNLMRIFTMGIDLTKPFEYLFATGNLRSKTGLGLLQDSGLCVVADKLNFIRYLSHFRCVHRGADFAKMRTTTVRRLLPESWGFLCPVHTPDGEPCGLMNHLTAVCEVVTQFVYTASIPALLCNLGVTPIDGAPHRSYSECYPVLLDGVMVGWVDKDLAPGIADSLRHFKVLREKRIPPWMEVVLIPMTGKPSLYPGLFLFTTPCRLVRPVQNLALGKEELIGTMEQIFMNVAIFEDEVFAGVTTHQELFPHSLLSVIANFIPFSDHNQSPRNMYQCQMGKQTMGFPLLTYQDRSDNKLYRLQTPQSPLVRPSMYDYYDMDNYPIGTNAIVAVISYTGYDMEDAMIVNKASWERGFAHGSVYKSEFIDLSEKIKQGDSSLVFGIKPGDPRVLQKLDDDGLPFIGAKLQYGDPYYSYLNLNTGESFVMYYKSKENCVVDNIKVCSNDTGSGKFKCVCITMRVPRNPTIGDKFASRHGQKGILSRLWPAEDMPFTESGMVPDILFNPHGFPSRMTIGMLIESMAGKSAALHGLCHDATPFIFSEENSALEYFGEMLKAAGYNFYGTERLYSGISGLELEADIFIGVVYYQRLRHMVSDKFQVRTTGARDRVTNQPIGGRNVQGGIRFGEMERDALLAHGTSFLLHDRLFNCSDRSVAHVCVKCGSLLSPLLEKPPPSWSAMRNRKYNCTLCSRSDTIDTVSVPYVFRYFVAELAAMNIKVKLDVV

[1] = compound: C/C(=N\NC(=O)C1=CC(=CC=C1)S(=O)(=O)N2CCOCC2)/C3=C(C=CC(=C3)Cl)O
Outline: as §1

[2] = compound: C1=CC(=CC=C1C2=NC3=C(N2)C=C(C=C3)C(=O)N)OC4=CC=C(C=C4)Cl
Outline: as §1

[3] = compound: C1=CC2=C(C=CC(=C2)/C=C\3/C(=O)NC(=NCC4=CC=CS4)S3)N=C1
Outline: as §1

[4] = compound: C1=CC2=NC=CN=C2C=C1/C=C/3\C(=O)NC(=O)S3
Outline: as §1

[5] = compound: C1=CC=C(C=C1)C2=NC(=C(N2)C3=CC=NC=C3)C4=CC(=C(C=C4)Cl)O
Outline: as §1

[6] = compound: C1=CC=C2C(=C1)C3=NNC4=CC=CC(=C43)C2=O
Outline: as §1

[7] = compound: C1CCN(C1)C(=O)NC2=CC=CC(=C2)NC3=NC=C(C(=N3)NCCC4=CN=CN4)Br
Outline: as §1

[8] = compound: C1CN(CCC1(CC2=CC=C(C=C2)Cl)N)C3=NC=NC4=C3C=CN4
Outline: as §1

IRAK-1-4 Inhibitor I = compound: C1COCCN1CCN2C3=CC=CC=C3N=C2NC(=O)C4=CC(=CC=C4)[N+](=O)[O-] [IRAK-1-4 Inhibitor I]
Outline: as §1

ibrutinib = compound: C=CC(=O)N1CCC[C@@H](n2nc(-c3ccc(Oc4ccccc4)cc3)c3c(N)ncnc32)C1 [ibrutinib]
Outline: as §1

ralimetinib = compound: CC(C)(C)Cn1c(N)nc2ccc(-c3[nH]c(C(C)(C)C)nc3-c3ccc(F)cc3)nc21 [ralimetinib]
Outline: as §1

[9] = compound: CC(C)(O)CC(=O)NCCn1ccc2ncnc(Nc3ccc(Oc4cccc(C(F)(F)F)c4)c(Cl)c3)c21
Outline: as §1

[10] = compound: CC(C)C1=C2N=C(C=C(N2N=C1)NCC3=CC=CC=C3)NCCCCCCN
Outline: as §1

[11] = compound: CC1=C(C2=C(C=C1)C(=O)C3=CC=CC=C3N2CCCN)C
Outline: as §1

[12] = compound: CC1=C(C=C(C=C1)NC(=O)C2=CC(=CC=C2)C(C)(C)C#N)NC3=CC4=C(C=C3)N=CN(C4=O)C
Outline: as §1

[13] = compound: CC1=C(C=C(C=C1)NC(=O)C2=CC(=CC=C2)N(C)C)NC(=O)C3=CC=C(C=C3)O
Outline: as §1

[14] = compound: CC(=O)c1cnc2ccc(-c3cc(Cl)c(O)c(Cl)c3)nc2c1N[C@H]1CC[C@H](CN(C)C)CC1
Outline: as §1

[15] = compound: CC1=C(C(CC(=O)N1)C2=CC=C(C=C2)C(F)(F)F)C(=O)NC3=C(C=C4C(=C3)C=NN4)F
Outline: as §1

[16] = compound: CC1=CC=C(C=C1)SC2=C3C=C(SC3=CN=C2)C(=O)N
Outline: as §1

Measured: log2 fold change

POMK (UniProt Q9H5K3)
inactive: erlotinib -0.085 | [1] 0.052 | [2] -0.142 | [3] -0.13 | [4] 0.065 | [5] -0.05 | [6] -0.04 | [7] -0.074 | [8] 0.076 | IRAK-1-4 Inhibitor I -0.135 | ibrutinib 0.021 | ralimetinib 0.074 | [9] -0.079 | [10] 0.061 | [11] -0.012 | [12] -0.013 | [13] 0.047

PMVK (UniProt Q15126)
inactive: erlotinib -0.004 | [1] 0.024 | [2] -0.02 | [3] -0.033 | [4] 0.05 | [5] -0.005 | [6] -0.033 | [7] 0.084 | [8] -0.025 | IRAK-1-4 Inhibitor I -0.021 | ibrutinib 0.028 | [14] 0.022 | ralimetinib 0.05 | [9] -0.021 | [10] -0.086 | [15] -0.057 | [11] 0.036 | [12] 0.033 | [13] 0.056 | [16] -0.004

POLR3GL (UniProt Q9BT43)
inactive: erlotinib -0.055 | [1] -0.053 | [2] -0.026 | [3] -0.041 | [4] 0.033 | [5] -0.008 | [6] 0.005 | [7] -0.006 | [8] 0.033 | IRAK-1-4 Inhibitor I 0.038 | ibrutinib -0.287 | [14] 0.003 | ralimetinib -0.013 | [9] -0.121 | [10] -0.085 | [15] -0.036 | [11] -0.077 | [12] 0.053 | [13] -0.08 | [16] 0.027

POLRMT (UniProt O00411)
inactive: erlotinib -0.015 | [1] 0.006 | [2] -0.002 | [3] -0.084 | [4] -0.073 | [5] -0.021 | [6] -0.117 | [7] -0.032 | [8] -0.06 | IRAK-1-4 Inhibitor I -0.004 | ibrutinib -0.018 | [14] -0.011 | ralimetinib -0.021 | [9] -0.028 | [10] 0.011 | [15] 0.01 | [11] 0.027 | [12] 0.042 | [13] 0.047 | [16] -0.002

PLIN2 (UniProt Q99541)
inactive: erlotinib 0.013 | [1] 0.024 | [2] -0.093 | [3] 0.004 | [4] 0.028 | [5] -0.015 | [6] -0.045 | [7] 0.021 | [8] -0.042 | IRAK-1-4 Inhibitor I 0 | ibrutinib 0.015 | [14] 0.031 | ralimetinib -0.014 | [9] -0.022 | [10] -0.001 | [15] 0.069 | [11] -0.007 | [12] 0.016 | [13] 0.025 | [16] 0

POLR3F (UniProt Q9H1D9)
inactive: erlotinib -0.029 | [1] -0.05 | [2] 0.026 | [3] 0.027 | [4] 0.032 | [5] -0.019 | [6] -0.046 | [7] 0.006 | [8] -0.01 | IRAK-1-4 Inhibitor I 0.013 | ibrutinib 0.016 | [14] -0.016 | ralimetinib 0.045 | [9] -0.028 | [10] -0.008 | [15] 0.023 | [11] -0.007 | [12] -0.023 | [13] -0.008 | [16] 0.008

PLPBP (UniProt O94903)
inactive: erlotinib -0.014 | [1] -0.089 | [2] 0.059 | [3] -0.004 | [4] 0 | [5] -0.006 | [6] -0.033 | [7] -0.001 | [8] 0.004 | IRAK-1-4 Inhibitor I -0.021 | ibrutinib 0.015 | [14] -0.006 | ralimetinib 0.023 | [9] -0.018 | [10] -0.015 | [15] 0.046 | [11] 0.015 | [12] 0.055 | [13] 0.012 | [16] -0.009

PPFIA3 (UniProt O75145)
inactive: erlotinib 0.128 | [1] -0.304 | [2] -0.075 | [3] 0.007 | [4] -0.105 | [5] -0.026 | [6] 0.007 | IRAK-1-4 Inhibitor I -0.013 | ibrutinib -0.174 | [14] 0.032 | ralimetinib 0.022 | [9] 0.134 | [10] -0.059 | [15] 0.017 | [11] -0.104 | [13] 0.04 | [16] -0.024

PMS1 (UniProt P54277)
inactive: erlotinib -0.024 | [1] 0.012 | [2] 0.041 | [3] -0.002 | [4] 0.106 | [5] 0.03 | [6] -0.094 | [7] -0.002 | [8] 0.016 | IRAK-1-4 Inhibitor I -0.027 | ibrutinib 0 | ralimetinib -0.015 | [9] -0.021 | [10] 0.025 | [15] -0.052 | [11] 0.022 | [12] -0.02 | [13] 0.009

PODXL2 (UniProt Q9NZ53)
inactive: erlotinib 0.027 | [1] -0.243 | [2] 0.193 | [3] -0.223 | [4] -0.062 | [5] 0.026 | [6] 0 | [7] -0.08 | [8] 0.139 | IRAK-1-4 Inhibitor I -0.148 | ibrutinib 0.134 | [14] -0.1 | ralimetinib 0.131 | [9] 0.019 | [10] -0.331 | [15] -0.029 | [11] -0.039 | [12] -0.041 | [13] 0.061 | [16] 0.057

POLR1B isoform 3 (UniProt Q9H9Y6)
inactive: erlotinib 0.03 | [1] -0.039 | [2] -0.029 | [3] 0.048 | [4] -0.006 | [5] 0.009 | [6] -0.046 | [7] -0.038 | [8] -0.025 | IRAK-1-4 Inhibitor I -0.009 | ibrutinib 0.137 | [14] -0.006 | ralimetinib 0.01 | [9] -0.015 | [10] 0.058 | [15] -0.005 | [11] -0.024 | [12] -0.036 | [13] 0.009 | [16] 0.03

From the supplement of paper PMC10849652
